Data reported in PMC9836804.
Results are given in words; binding and its absence hold for the method and conditions named. In cells and extracts the contact can be indirect. Some results given as binding are weak or reduced against the parent protein; the word gives no strength. Sequences can lack the tags named with a protein.

Biological target: T1, HA-tagged ZEB1 (human) (UniProt P37275)
T1 sequence: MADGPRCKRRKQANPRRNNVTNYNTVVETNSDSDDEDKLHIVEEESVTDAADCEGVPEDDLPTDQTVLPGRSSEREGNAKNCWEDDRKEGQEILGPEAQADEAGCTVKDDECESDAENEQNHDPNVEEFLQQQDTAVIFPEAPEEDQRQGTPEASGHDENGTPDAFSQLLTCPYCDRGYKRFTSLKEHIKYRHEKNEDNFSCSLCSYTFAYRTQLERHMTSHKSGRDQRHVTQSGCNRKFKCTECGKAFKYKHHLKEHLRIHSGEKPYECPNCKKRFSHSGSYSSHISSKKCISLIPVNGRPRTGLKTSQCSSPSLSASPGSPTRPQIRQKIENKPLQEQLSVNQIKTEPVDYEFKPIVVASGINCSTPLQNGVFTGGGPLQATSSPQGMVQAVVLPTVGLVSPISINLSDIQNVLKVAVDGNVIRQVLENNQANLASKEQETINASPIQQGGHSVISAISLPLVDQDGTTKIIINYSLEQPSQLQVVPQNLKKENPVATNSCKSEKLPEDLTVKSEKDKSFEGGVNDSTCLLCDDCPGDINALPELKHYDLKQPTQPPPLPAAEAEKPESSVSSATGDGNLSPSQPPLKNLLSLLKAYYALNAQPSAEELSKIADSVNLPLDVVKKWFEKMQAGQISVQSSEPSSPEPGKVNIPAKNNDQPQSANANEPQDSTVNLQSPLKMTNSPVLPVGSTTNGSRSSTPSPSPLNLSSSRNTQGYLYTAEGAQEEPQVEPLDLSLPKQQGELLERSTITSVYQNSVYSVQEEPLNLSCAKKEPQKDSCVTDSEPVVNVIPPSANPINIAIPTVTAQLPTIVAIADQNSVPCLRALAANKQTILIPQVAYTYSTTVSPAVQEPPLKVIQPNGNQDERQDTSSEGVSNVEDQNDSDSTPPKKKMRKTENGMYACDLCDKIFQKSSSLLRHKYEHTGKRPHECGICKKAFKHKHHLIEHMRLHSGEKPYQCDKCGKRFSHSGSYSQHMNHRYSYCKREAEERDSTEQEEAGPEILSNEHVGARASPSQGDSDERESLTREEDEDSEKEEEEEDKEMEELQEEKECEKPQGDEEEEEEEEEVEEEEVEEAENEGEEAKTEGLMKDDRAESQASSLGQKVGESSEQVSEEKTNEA
Test: co-IP; NCI-H1395 cells transfected with FLAG-tagged TRIM58 or HA-tagged ZEB1; lysate with 2 uL FLAG/HA antibody and Protein A/G magnetic beads, 4 h at 4°C; immunoblotting by FLAG/HA antibodies

binding: binds
B1: FLAG-tagged TRIM58 (protein, UniProt Q8NG06 1-486)
chain: MAWAPPGERLREDARCPVCLDFLQEPVSVDCGHSFCLRCISEFCEKSDGAQGGVYACPQCRGPFRPSGFRPNRQLAGLVESVRRLGLGAGPGARRCARHGEDLSRFCEEDEAALCWVCDAGPEHRTHRTAPLQEAAGSYQVKLQMALELMRKELEDALTQEANVGKKTVIWKEKVEMQRQRFRLEFEKHRGFLAQEEQRQLRRLEAEERATLQRLRESKSRLVQQSKALKELADELQERCQRPALGLLEGVRGVLSRSKAVTRLEAENIPMELKTACCIPGRRELLRKFQVDVKLDPATAHPSLLLTADLRSVQDGEPWRDVPNNPERFDTWPCILGLQSFSSGRHYWEVLVGEGAEWGLGVCQDTLPRKGETTPSPENGVWALWLLKGNEYMVLASPSVPLLQLESPRCIGIFLDYEAGEISFYNVTDGSYIYTFNQLFSGLLRPYFFICDATPLILPPTTIAGSGNWASRDHLDPASDVRDDHL
